Measurements as given in patent EP4574152A1, “POTASSIUM CHANNEL ACTIVATORS FOR USE IN THE TREATMENT OF EPILEPTIC DISORDERS” (Fraunhofer-Gesellschaft zur Förderung der angewandten …, priority 2023, dated 2025).
For at least one compound, name, drawing or mass did not settle the structure.

Key:
[1] = target: T1, Kv7.2 channels carrying the W236L mutation (Homo sapiens, UniProt O43526, W236L); details: cited from earlier work
T1 construct: expressed in transfected cells

Kv7.3 A315T = target: T2, Kv7.3 A315T (Homo sapiens, UniProt O43525, A315T); test: whole-cell patch-clamp in CHO cells transiently transfected with Kv7.3 A315T cDNA; format: cell-based
T2 construct: expressed in transfected cells; host or cells: CHO, transient
Method: JNJ-37822681 efficacy in opening Kv7 channels was further investigated through the whole-cell patch-clamp electrophysiological technique, the gold standard technique for investigating ion channels activity and pharmacological modulation.
In order to better evaluate the quantitative differences occurring in Kv7-opening ability between retigabine, and JNJ-37822681, dose-response experiments (0.01-30 µM) were performed to calculate EC50s using the functional parameters of ΔV1/2 (Figure 1C).

CCOC(=O)Nc1ccc(NCc2ccc(F)cc2)cc1N [retigabine, reference compound]
effect of the W236L mutation in Kv7.2 on retigabine-induced K7.2 activation [1]: largely abolishes | maximal ΔV1/2 (Kv7.3 A315T; dose-response 0.01-30 µM): 60.9±6.1 mV | leftward shift of the channel voltage-dependence of activation (ΔV1/2) (Kv7.3 A315T; perfusion with 1 µM): about 10 mV
